Test results as given in PubChem BioAssay AID2685 (National Center for Advancing Translational Sciences (NCATS), 2010).
Some of the results follow. The main result of the screen is listed elsewhere. These columns were measured beside it and carry no call. Most of these compounds were active or inconclusive in the main read-out, so they are no random draw. The note in brackets gives the kind of curve behind each potency; many fits are weak.

Experiment: qHTS Assay for Lipid Storage Modulators in Drosophila S3 Cells;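 for cell number change: cells counted by Cell Tracker Red CMTPX staining in the red channel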
Details: BODIPY lipid droplet fluorescence, 18-24 h; for cell number change: measured here: cell count max response, cells fed with added oleic acid
In short: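 Laser-scanning cytometry quantifies lipid droplet accumulation (500–530 nm total intensity; droplet/cell object ratio) in oleic acid-fed (400 uM added) Drosophila S3 cells treated with a concentration series. 20 uM Triacsin C defined 100% inhibition.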

[1] = measured here: cell number channel AC50, cells fed with added oleic acid
[2] = measured here: lipid fluorescence (Fed channel) AC50, cells fed with added oleic acid

SMILES: CC(=O)c1ccc(S(=O)(=O)Nc2ccc(N3CCOCC3)cc2)cc1
- cell number change: 18.5%
- AC50 [1]: 0.92 µM [rising, full curve, poor fit]
- AC50 [2]: 0.116 µM [rising, partial curve, poor fit]

SMILES: CCc1ccc(C(=O)CCC(=O)Nc2ccc(OC)c(S(=O)(=O)N3CCCCC3)c2)cc1
- cell number change: -17%
- AC50 [2]: 29.1 µM [falling, single point]

SMILES: CN(C)N=Nc1ccc(S(=O)(=O)/N=C(\O)c2ccccc2)cc1
- cell number change: 2.47%
- AC50 [2]: 23.1 µM [rising, partial curve]

SMILES: Cc1ccc(/C=N/NC(=O)CSc2nc3ccccc3c(=O)n2-c2ccccc2)s1
- cell number change: -22.7%
- AC50 [1]: 6.51 µM [rising, single point]
- AC50 [2]: 1.64 µM [rising, full curve]

SMILES: COCCNC(=O)CN(Cc1ccc(Cl)cc1)S(C)(=O)=O
- AC50 [2]: 20.6 µM [falling, partial curve]

SMILES: O=C(NCc1cccnc1)c1cnn2ccccc12
- cell number change: 63.9%
- AC50 [1]: 29.1 µM [rising, single point]
- AC50 [2]: 0.00517 µM [falling, full curve, poor fit]

SMILES: CC1CCCN(Cc2csc(N)n2)C1 (centres undefined)
- cell number change: -46.7%
- AC50 [1]: 0.231 µM [falling, full curve, poor fit]
- AC50 [2]: 20.6 µM [falling, partial curve, poor fit]

SMILES: Cc1cccc(N2C(=O)c3ccccc3C2=O)n1
- cell number change: -50%
- AC50 [1]: 20.6 µM [falling, single point]

SMILES: Cc1ccc(CN2CC(C(=O)Nc3cccc(C)n3)CC2=O)cc1 (centres undefined)
- cell number change: 7.99%
- AC50 [2]: 4.61 µM [falling, full curve]

SMILES: O=C(NC1CC2CCCC(C1)N2C(=O)NC1CCCCC1)c1ccccc1 (centres undefined)
- cell number change: -21.3%
- AC50 [2]: 0.259 µM [falling, full curve, poor fit]

SMILES: Fc1ccc(CO/N=C/C2=C(Cl)c3ccccc3CC2)cc1
- cell number change: 5.05%
- AC50 [2]: 5.8 µM [falling, partial curve]

SMILES: O=C(c1ccccc1Cl)N(Cc1ccc(Br)cc1)N1C(=O)CCC1=O
- cell number change: -37.4%

SMILES: CCCCn1c(N)c(N(CCOC)C(=O)CCCc2nc3ccccc3s2)c(=O)[nH]c1=O
- AC50 [2]: 0.103 µM [falling, full curve, poor fit]

SMILES: Cc1ccc(OCc2nnc(SCC(=O)Nc3nccs3)n2-c2ccccc2)cc1C
- cell number change: 39.8%
- AC50 [1]: 18.4 µM [rising, single point]
- AC50 [2]: 0.731 µM [rising, single point]

SMILES: COc1ccc(Br)cc1S(=O)(=O)N1CCOCC1
- cell number change: -198%
- AC50 [1]: 29.1 µM [falling, single point]

SMILES: COc1cccc(NC(=O)N2CCCC2C(=O)NCc2ccco2)c1 (centres undefined)
- cell number change: 24.4%
- AC50 [1]: 1.46 µM [rising, full curve, poor fit]

SMILES: COC(=O)c1ccc(NCCc2csc(-c3ccc(C)cc3)n2)c([N+](=O)[O-])c1
- cell number change: -89.3%
- AC50 [1]: 29.1 µM [falling, single point]
- AC50 [2]: 29.1 µM [falling, single point]

SMILES: Cc1ccc(S(=O)(=O)N2CCCC(C(=O)Nc3cccnc3)C2)cc1 (centres undefined)
- AC50 [1]: 0.164 µM [falling, full curve, poor fit]
- AC50 [2]: 0.13 µM [falling, full curve, poor fit]

SMILES: COc1ccccc1N1CCN(C(=O)c2cc3c(=O)n4ccccc4nc3s2)CC1
- cell number change: 11.2%
- AC50 [1]: 1.3 µM [rising, partial curve, poor fit]
- AC50 [2]: 0.00461 µM [rising, full curve, poor fit]

SMILES: COc1ccc(C(=O)N(C)c2c(C)n(C)n(-c3ccccc3)c2=O)cc1OC
- cell number change: -57.5%
- AC50 [1]: 16.4 µM [falling, single point]

SMILES: CC(C)C(=O)Nc1nc(-c2ccc3c(c2)CCN3C(=O)C2CC2)cs1
- cell number change: -25.7%

SMILES: CCOc1ccc(-n2c(SCC(=O)Nc3ccc4c(c3)OCO4)nc3ccccc3c2=O)cc1
- cell number change: 47.3%
- AC50 [2]: 0.0651 µM [rising, full curve, poor fit]

SMILES: Cc1nnc(SCC(=O)N(C)Cc2ccccc2)[nH]c1=O
- cell number change: 20.2%
- AC50 [1]: 7.31 µM [rising, partial curve, poor fit]
- AC50 [2]: 0.00517 µM [falling, full curve, poor fit]

SMILES: Clc1ccc(OCCN2CCOCC2)cc1Cl
- cell number change: -71.2%
- AC50 [1]: 29.1 µM [falling, single point]

SMILES: CCCCCCN1C=CC=C/C1=C\C=C(C#N)C#N
- cell number change: -8.42%

SMILES: O=C(NCc1ccccc1Cl)C1(S(=O)(=O)c2ccc(Cl)cc2)CC1
- cell number change: -1.9%

SMILES: CCOC(=O)c1sc2nc3c(cc2c1N)COC(C(C)C)C3 (centres undefined)
- cell number change: 1.78%

SMILES: O=C(/C=C/c1ccc(Br)o1)OCc1ccccc1
- cell number change: 14.7%
- AC50 [2]: 29.1 µM [falling, single point]

SMILES: CCC(CC)NC(=O)CN1CCN(S(=O)(=O)c2ccc(Br)s2)CC1
- cell number change: -8.23%
- AC50 [2]: 6.51 µM [falling, single point]

SMILES: CCN1CCN(C(=O)C(=O)c2cn(CC(=O)N3CCCCCC3)c3ccccc23)CC1
- AC50 [2]: 18.4 µM [falling, single point]

SMILES: O=C(c1cc(-c2ccc(Cl)s2)nc2ccccc12)N1CCOCC1
- cell number change: 27.9%
- AC50 [2]: 25.9 µM [rising, single point]

SMILES: CCCc1cc(C(=O)Nc2ccc(OC)cc2[N+](=O)[O-])cs1
- cell number change: -17.1%
- AC50 [2]: 29.1 µM [falling, single point]

SMILES: Cc1noc(C)c1CSc1nc2ccccc2s1
- AC50 [1]: 0.082 µM [falling, full curve, poor fit]
- AC50 [2]: 6.51 µM [falling, single point]

SMILES: COc1cccc(N=Nc2c(N)[nH][nH]c2=O)c1
- cell number change: 21.5%
- AC50 [2]: 1.84 µM [falling, single point]

SMILES: Cc1ccc(NC(=O)Nc2nnc(Cc3ccc(F)cc3)s2)cc1
- cell number change: -35.1%
- AC50 [1]: 16.4 µM [falling, single point]
- AC50 [2]: 23.1 µM [falling, single point]

SMILES: Cc1c(OC(C)C(=O)NCc2ccccn2)ccc2c3c(c(=O)oc12)CCC3 (centres undefined)
- AC50 [2]: 9.2 µM [falling, partial curve]

SMILES: Cc1ccc2c(C)nc(N/C(N)=N/S(=O)(=O)c3ccc([N+](=O)[O-])cc3)nc2c1
- cell number change: -8.26%
- AC50 [1]: 2.31 µM [falling, single point]
- AC50 [2]: 0.206 µM [falling, full curve, poor fit]

SMILES: CCCn1c(C2CCCN2c2nc(-c3cccc(Br)c3)cs2)nc2ccccc21 (centres undefined)
- cell number change: 19.1%
- AC50 [2]: 29.1 µM [rising, single point]

SMILES: CCOC(=O)N1CCN(C(=O)c2ccccc2NC(=O)COc2ccccc2C)CC1
- cell number change: -20.8%
- AC50 [2]: 6.51 µM [rising, single point]

SMILES: O=C(Cn1cccc1)Nc1ccc(OC(F)(F)F)cc1
- cell number change: -31.4%
- AC50 [1]: 5.8 µM [falling, full curve, poor fit]

SMILES: CCN(CC(=O)NC(C)C)Cc1nc2c(Br)cc(Br)cc2c(=O)[nH]1
- cell number change: 25.4%
- AC50 [1]: 0.411 µM [rising, full curve, poor fit]
- AC50 [2]: 0.092 µM [rising, partial curve, poor fit]

SMILES: O=S(=O)(NCC(c1ccc2c(c1)OCO2)N1CCOCC1)c1ccc(F)cc1 (centres undefined)
- AC50 [2]: 14.6 µM [falling, single point]

SMILES: OC(c1cc(C(F)(F)F)nc2c(C(F)(F)F)cccc12)C1CCCCN1 (centres undefined)
- cell number change: -70.9%
- AC50 [1]: 16.4 µM [falling, partial curve]
- AC50 [2]: 29.1 µM [falling, single point]

SMILES: Cc1nc2sccn2c1-c1nc(-c2cc3ccccc3o2)cs1
- cell number change: 45.8%
- AC50 [1]: 5.17 µM [rising, partial curve]
- AC50 [2]: 16.4 µM [rising, partial curve]

SMILES: O=C(O)CC12CC3CC(C1)CC(n1ncc(NCc4ccccc4)c(Cl)c1=O)(C3)C2
- cell number change: 9.39%

SMILES: CCN1CCN(C(=O)c2ccc3nc(-c4ccccc4)c(-c4ccccc4)nc3c2)CC1
- cell number change: 14.6%
- AC50 [2]: 6.51 µM [rising, partial curve, poor fit]

SMILES: Cc1cc(NC(=O)CCCN2C(=O)/C(=C/c3ccccc3Cl)SC2=S)no1
- cell number change: -10.3%
- AC50 [2]: 1.46 µM [falling, partial curve, poor fit]

SMILES: Cc1ccc(C(=O)ONc2ccc(N=O)cc2)cc1
- cell number change: -68.9%
- AC50 [1]: 20.6 µM [falling, single point]
- AC50 [2]: 0.00461 µM [falling, full curve, poor fit]

SMILES: CCN(C(=O)/C=C/c1ccc2c(c1)OCO2)c1ccccc1
- cell number change: -33.3%
- AC50 [1]: 29.1 µM [falling, single point]
- AC50 [2]: 0.0326 µM [rising, full curve, poor fit]

SMILES: CCCNC(=O)C1(CC2CC(c3ccccc3)=NO2)CCN(C(=O)c2ccccc2)CC1 (centres undefined)
- cell number change: -11.2%
- AC50 [1]: 6.51 µM [falling, single point]
- AC50 [2]: 32.6 µM [falling, single point]

SMILES: N#Cc1ccc(CSc2nnc(-c3ccncc3)n2CCc2ccccc2)cc1
- cell number change: -7.83%

SMILES: Cc1cc(C)c2c(=O)[nH]c(SCC(=O)c3ccc(F)c(C)c3)nc2n1
- cell number change: -21.1%
- AC50 [2]: 0.82 µM [falling, full curve]

SMILES: COc1cc2c(cc1OC)CN(C(=O)Cc1c(F)cccc1Cl)CC2
- AC50 [2]: 6.51 µM [falling, single point]

SMILES: NC(=O)[C@@H]1CCCN1C(=O)c1ccc2oc(CCc3ccccc3)nc2c1
- cell number change: -3.76%
- AC50 [2]: 6.51 µM [rising, single point]

SMILES: O=C(Cc1ccc(Cl)cc1)Nc1ccc(N2CCN(C(=O)c3ccco3)CC2)c(Cl)c1
- AC50 [2]: 13 µM [falling, partial curve, poor fit]

SMILES: COc1cccc(OCC(=O)NNC(=S)Nc2ccc(Cl)cc2Cl)c1
- cell number change: 22%
- AC50 [2]: 6.51 µM [rising, single point]
